Structures are written as SMILES. The list shows a part of the results. The main result of the screen is listed elsewhere. These columns were measured beside it and carry no call. The list favours compounds with an active or inconclusive main result. Words in brackets tell the shape of the fitted curve; partial curves, single points and poor fits give uncertain potencies.

A short description of the experiment: qHTS Assay for Modulators of Lamin A Splicing. Conditions: HeLa LMNA splicing GFP/RFP minigene ratio, 48 h. The gist of the method:
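Read-out is the ratio of GFP to DsRed2 object intensity, acquired by 488 nm laser-scanning cytometry on HeLa lamin A-EGFP minigene reporter cells. Compound incubation 48 hrs at 37 °C in Opti-MEM with 2% FBS; DMSO 0.5% final.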
Background: qHTS replaces the single test concentration by a dilution series.

Setting [1] is: measured here: RFP viability control channel.
Where [2] appears, read: measured here: GFP splicing reporter channel.

For orientation: AC50 means the concentration giving half of the maximal activity seen. Take `O=C(CSc1nccn1C1CCCC1)Nc1ccccc1`: the AC50 under setting [1] is 0.00316 µM [falling, full curve, poor fit]. Consider `COc1ccc2c(c1)Cc1sc(NC(=O)c3cccc(Cl)c3)nc1-2`, for which the AC50 reads like this: under setting [2], 35.5 µM [falling, single point]; under setting [1], 28.2 µM [falling, partial curve, poor fit]. Turning to `CCCC(=O)NC(=S)Nc1ccc(CN2CCOCC2)cc1`, the AC50 was 1.41 µM [falling, full curve, poor fit] under setting [2] and 8.91 µM [falling, partial curve, poor fit] under setting [1]. `COc1ccccc1C(=O)NNC(=O)c1ccc(NC(=O)c2ccccc2)cc1`: the AC50 runs as follows: under setting [2], 0.0398 µM [falling, full curve, poor fit]; under setting [1], 0.0282 µM [falling, full curve, poor fit]. As to `O=C1CCS/C(=N\N=C\c2ccc(Cl)cc2Cl)N1`, the AC50 under setting [2] was 0.794 µM [rising, partial curve, poor fit]. As to `CCCN(CCC)CCCNC(=O)c1nn(C)c2c1CS(=O)(=O)c1ccccc1-2`, under setting [2], the AC50 is 0.0251 µM [falling, full curve, poor fit]. For the molecule `CN1C(=O)/C(=C/c2ccc(O)c([N+](=O)[O-])c2)NC1=S`, the AC50 was 0.0891 µM [falling, full curve, poor fit] under setting [2] and 6.31 µM [falling, full curve] under setting [1]. Take `COc1cccc(CC2(CO)CCCN(Cc3nc(-c4cccs4)oc3C)C2)c1` (centres undefined): under setting [1], the AC50 was 0.00316 µM [falling, full curve, poor fit]. On the same count and under the same terms, under `Cn1c(=O)c2c(nc(CN3CCN(C(=O)c4ccco4)CC3)n2Cc2cccc(Cl)c2)n(C)c1=O` stands 0.00355 µM [falling, full curve, poor fit]; under `CCOC(=O)c1c(NC(=O)CN2C(=O)NC(C)(c3ccccc3)C2=O)sc(C)c1C` (centres undefined), 15.8 µM [falling, single point]; under `O=C(CN1C(=O)S/C(=C\C=C\c2ccccc2)C1=O)Nc1cccc(O)c1`, 11.2 µM [rising, partial curve, poor fit]. In the case of `COC(=O)CCC(=O)OC1(C)C(=O)C=C2C=C(C3CC3)N(CCc3ccccn3)C=C2C1=O` (centres undefined), the AC50 under setting [1] is 1.58 µM [rising, partial curve, poor fit]. Regarding `O=C(O)/C=C/c1ccc2noc(-c3ccccc3)c2c1`, the AC50 under setting [2] is 0.0398 µM [falling, full curve, poor fit] and the AC50 under setting [1] is 0.00316 µM [falling, full curve, poor fit]. Regarding `O=C(Nc1ccc(N2CCOCC2)c(Cl)c1)c1c(F)c(F)c(F)c(F)c1F`, under setting [1], the AC50 was 17.8 µM [falling, partial curve, poor fit]. For the molecule `Cc1ccccc1C(=O)NC(NC(=O)c1ccccc1C)c1cccc([N+](=O)[O-])c1`, the AC50 is, setting by setting: under setting [2], 14.1 µM [rising, single point]; under setting [1], 11.2 µM [rising, partial curve]. On to `Cc1ccc(C)c(NC(=O)COc2cccc3c2CCN(Cc2ccccc2)C3=O)c1`, for which the AC50 under setting [1] is 0.1 µM [rising, full curve, poor fit]. Consider `CCN(CCCn1c(SCC#N)nc2ccccc2c1=O)c1ccccc1`, for which the AC50 under setting [2] is 11.2 µM [rising, partial curve] and the AC50 under setting [1] was 15.8 µM [rising, partial curve]. Regarding `O=c1cc(N2CCN(c3ccc(F)cc3)CC2)[nH]c(=O)n1-c1cccc(Br)c1`, the AC50 under setting [1] was 7.94 µM [rising, partial curve].

Regarding `N#Cc1c(C(F)(F)F)cc(-c2ccc(Cl)cc2)[nH]c1=O`, the AC50 under setting [1] is 25.1 µM [rising, single point].

For the molecule `Cn1c(N)c(C#N)c(C#N)c1-c1ccccc1`, the AC50 is 0.447 µM [rising, full curve] under setting [2] and 0.447 µM [rising, full curve] under setting [1]. Consider `COc1cccc(CNC(=O)C2CCCN(S(=O)(=O)c3cn(C)cn3)C2)c1` (centres undefined), for which the AC50 under setting [2] is 2.24 µM [falling, partial curve, poor fit] and the AC50 under setting [1] was 35.5 µM [falling, partial curve, poor fit].

As for `N#Cc1c(SCC(N)=O)nc(-c2ccccc2)c2c1CCCC2`, the AC50 under setting [2] was 15.8 µM [rising, partial curve, poor fit]. Consider `Cc1ccc(C(=O)c2cc(C)sc2NC(=O)CN2CCN(C(=O)c3ccco3)CC2)cc1`, for which the AC50 reads like this: under setting [2], 17.8 µM [rising, single point]; under setting [1], 35.5 µM [rising, single point]. In the case of `O=C(CSCc1ccccc1Br)N/N=C/c1ccc2c(c1)OCO2`, the AC50 under setting [1] was 22.4 µM [rising, single point].

Take `Cc1ccc(NC(=O)C(C)c2ccc(-c3ccccc3)c(F)c2)cc1` (centres undefined): under setting [1], the AC50 was 3.55 µM [rising, single point].

As to `Cc1ccc(-c2nc3ccccc3s2)cc1S(=O)(=O)N1CCOCC1`, the AC50 under setting [1] was 14.1 µM [rising, single point]. For the molecule `CCN1C/C(=C/c2cccc([N+](=O)[O-])c2)C(=O)/C(=C/c2cccc([N+](=O)[O-])c2)C1`, under setting [1], the AC50 is 35.5 µM [falling, single point].

For the molecule `CC(C)c1ccc(NC(=O)CSC2=Nc3ccccc3C3=NC(CC(=O)NCCc4ccccc4)C(=O)N23)cc1` (centres undefined), the AC50 is 35.5 µM [rising, single point] under setting [2] and 31.6 µM [rising, single point] under setting [1]. With `Cc1nc2ccc(NC(=O)c3ccc(Cl)c(S(=O)(=O)N(C)c4ccccc4)c3)cc2s1`, the AC50 is 2.82 µM [rising, full curve, poor fit] under setting [2] and 3.98 µM [rising, full curve] under setting [1].

For `CC(c1ccccc1)N(NC(=O)C(O)(c1ccccc1)c1ccccc1)C(=O)c1ccccc1` (centres undefined), the AC50 under setting [1] was 5.62 µM [falling, single point]. With `Cn1c(NC(=O)/C=C/c2ccccc2)cc(=O)n(C)c1=O`, the AC50 under setting [1] is 35.5 µM [rising, single point].

For the molecule `Cc1c(NC(=O)c2nn3c(C(F)(F)F)cc(-c4ccccc4)nc3c2Br)c(=O)n(-c2ccccc2)n1C`, the AC50 under setting [2] was 7.08 µM [rising, partial curve, poor fit]. Take `Cc1ccccc1C(=O)Nc1ccc2nc(SCC(=O)N(C)c3ccccc3)sc2c1`: under setting [2], the AC50 is 2.82 µM [rising, full curve, poor fit]. For the molecule `CCOc1ccccc1Nc1nnc(SCC(=O)Nc2cc(C)on2)s1`, the AC50 reads like this: under setting [2], 0.112 µM [rising, full curve]; under setting [1], 0.141 µM [rising, full curve].

For `Cc1ccc(N2C(=O)CC(N3CCN(C4CCc5ccccc5C4)CC3)C2=O)cc1` (centres undefined), the AC50 under setting [1] was 0.251 µM [falling, full curve, poor fit]. Regarding `Cc1cc(Nc2nc3ccccc3nc2Cl)n(-c2ccccc2)n1`, the AC50 under setting [2] was 35.5 µM [falling, single point] and the AC50 under setting [1] is 2 µM [falling, partial curve, poor fit]. As to `CCOC(=O)C1CCN(S(=O)(=O)c2ccc(-n3cnnn3)c(C)c2)CC1`, the AC50 runs as follows: under setting [2], 12.6 µM [rising, partial curve, poor fit]; under setting [1], 12.6 µM [rising, partial curve, poor fit]. For the molecule `O=C(Nc1ncc(Cc2ccc(SC(F)F)cc2)s1)c1ccccc1`, the concentration at half-maximal activity (AC50) was 15.8 µM [falling, single point] under setting [2] and 17.8 µM [falling, single point] under setting [1]. As for `COc1ccc(C2c3cc(OC)c(OC)cc3CCN2S(C)(=O)=O)cc1OC` (centres undefined), the AC50 is 1.12 µM [falling, partial curve, poor fit] under setting [2] and 0.112 µM [falling, partial curve, poor fit] under setting [1]. With `CCCN(CC(=O)Nc1ccc(Cl)cc1Cl)Cc1cc(=O)n2ccsc2n1`, the AC50 under setting [1] was 8.91 µM [falling, partial curve].

Turning to `COc1cc(C(=O)NCc2nnc(SCC(=O)Nc3nc4ccccc4s3)o2)cc(OC)c1OC`, the AC50 under setting [2] was 0.891 µM [rising, full curve, poor fit] and the AC50 under setting [1] was 0.794 µM [rising, single point].

With `Cc1ccc2c(c1)C(c1ccc(F)cc1)N(C(=O)c1cc3ccccc3oc1=O)CC(=O)N2` (centres undefined), under setting [1], the AC50 is 14.1 µM [falling, partial curve]. For the molecule `CCCNC(=O)Cn1nc(C)c2c(C)n(-c3ccccc3)nc2c1=O`, the AC50 under setting [2] was 35.5 µM [rising, single point].

Consider `Cc1nn(-c2ccccc2)c(C)c1/C=N/NC(=O)c1cc(-c2cccc3ccccc23)n[nH]1`, for which, under setting [1], the AC50 was 15.8 µM [rising, partial curve]. Take `Cc1ccc(C)c2sc(NC(=O)c3nc4ccccc4s3)nc12`: the AC50 under setting [1] is 0.224 µM [rising, partial curve].

Consider `COc1ccc(OC)c([C@H](O)CNC(=O)CN)c1`, for which the AC50 by setting is: under setting [2], 0.251 µM [falling, partial curve]; under setting [1], 3.16 µM [falling, single point]. Take `COc1ccc(CNc2ncncc2-c2ccoc2)c(OC)c1`: the AC50 under setting [2] was 17.8 µM [falling, partial curve, poor fit].

Consider `COc1cc(NS(=O)(=O)c2ccc(C)c(C)c2)c(OC)cc1Cl`, for which the AC50 runs as follows: under setting [2], 12.6 µM [rising, single point]; under setting [1], 12.6 µM [rising, partial curve]. For the molecule `O=C(c1ccc(Cl)cc1)c1ccc(OCC(=O)N2CCOCC2)cc1`, the AC50 under setting [2] is 0.316 µM [rising, full curve] and the AC50 under setting [1] was 4.47 µM [rising, partial curve]. For `O=C(CNc1ccc2c(c1)OCO2)N/N=C\c1cn(Cc2ccccc2)c2ccccc12`, the AC50 is, setting by setting: under setting [2], 20 µM [rising, single point]; under setting [1], 28.2 µM [rising, single point]. `COc1cc(CNc2ccc(CNc3ncn[nH]3)cc2)cc(Cl)c1OCc1ccccc1`: the AC50 under setting [1] was 15.8 µM [rising, single point]. `COc1ccc(NC(=O)[C@@H](NC(=O)c2ccccc2)C(C)C)cc1S(=O)(=O)N1CCCCC1`: the AC50 under setting [1] is 17.8 µM [rising, single point].
